Source: PubChem BioAssay AID540256 (National Center for Advancing Translational Sciences (NCATS), 2011)
Screen size: about 300,000 compounds; about 3,700 (1.2%) were called active. This list was built around the results that the source calls inconclusive (neither active nor inactive); the mix of calls is not that of the screen. Calls follow the shape of the full dose curve; tested in HEK293 cells. Potencies beside an inconclusive call are fits to weak or partial responses and may not hold up.
Potency is read from the fitted curve at half-maximal effect.

Assay: qHTS for Inhibitors of binding or entry into cells for Lassa Virus; also: nearly all actives have a fitted effect of over 50% in size
Details: Lassa virus pseudotype entry inhibition, cell reporter; series mostly up to 37.9 µM
With `CN1CCN(C(=O)c2ccc3c(=O)n(Cc4ccc(Cl)cc4)c(=S)[nH]c3c2)CC1` the Potency was inconclusive: 0.116 µM [inhibitor, full curve, poor fit]. With `Cc1c(C(=O)NCCSCc2ccc(F)cc2)cnn1-c1ccc(Cl)cc1` the Potency was inconclusive: 20 µM [inhibitor, single point]. For `OC(COCc1ccc(Cl)cc1)CN1CCN(CC(O)COCc2ccc(Cl)cc2)CC1` (stereo unspecified), the Potency was inconclusive: 18.3 µM [inhibitor, partial curve, poor fit]. For `COc1ccc(-c2nn(-c3ccccc3)cc2C(=O)n2nnc3ccccc32)cc1`, the Potency was “inactive”. For `Cc1cccc(NC(=O)CSc2nc3ccccc3nc2N2CCOCC2)c1C`, the Potency was inconclusive: 35.5 µM [activator, single point]. In the case of `O=C1c2ccccc2C(Nc2ccc3c(c2)OCO3)N1Cc1ccc2c(c1)OCO2` (stereo unspecified), the Potency is reported as “inactive”. In the case of `Cc1ccc(/C=C2\SC(N3CCCCC3)=NC2=O)cc1`, the Potency is reported as inconclusive: 1 µM [inhibitor, full curve, poor fit]. For `O=C(O)c1cc(O)ccc1-c1ccc(O)cc1`, the Potency was “inactive”. For `COc1ccc2cc3cc(C(=O)NCc4ccccc4OC)oc3nc2c1`, the Potency was inconclusive: 2.51 µM [inhibitor, full curve, poor fit]. With `CC1(C)CC(=O)c2cc(C(=O)Nc3ccccc3Cl)c(=O)n(-c3ccc(Cl)cc3)c2C1` the Potency was inconclusive: 20 µM [activator, partial curve, poor fit]. With `CN(C)S(=O)(=O)c1cccc(NC(=O)COC(=O)COc2ccccc2[N+](=O)[O-])c1` the Potency was inconclusive: 1 µM [inhibitor, single point]. In the case of `CN(C)c1ccc(C2C=C(c3ccc(Cl)cc3OC(F)F)Nc3ncnn32)cc1` (stereo unspecified), the Potency is reported as active: 14.1 µM. In the case of `N#Cc1cc(Br)ccc1N=C1CCCN1c1ccccc1`, the Potency is reported as inconclusive: 5.62 µM [inhibitor, single point]. In the case of `CCCCn1c(N)c(C(=O)OCCOC)c2nc3ccccc3nc21`, the Potency is reported as “inactive”. With `O=C(NCc1ccccc1)C(=O)NCC(c1cccs1)S(=O)(=O)c1ccccc1` (stereo unspecified) the Potency was inconclusive: 11.2 µM [inhibitor, single point]. With `COc1cccc(N2CCN(S(=O)(=O)c3cccc4cccnc34)CC2)c1` the Potency was inconclusive: 11.2 µM [inhibitor, partial curve, poor fit]. For `COc1ccc(S(=O)(=O)N2CCCCC2)cc1NC(=O)Cc1sc(C)nc1-c1ccc(F)cc1`, the Potency was inconclusive: 12.6 µM [inhibitor, single point]. For `S=C(NCC1CCCO1)N1CCN(c2nc(-c3ccccc3)cs2)CC1` (stereo unspecified), the Potency was inconclusive: 35.5 µM [inhibitor, single point]. In the case of `Cc1cccc(NC(=O)c2ccc(NCCO)c([N+](=O)[O-])c2)n1`, the Potency is reported as “inactive”. In the case of `CCOc1ccc2nc(SCC(=O)NCc3ccccc3)[nH]c2c1`, the Potency is reported as “inactive”. For `Cc1ccc(C(=O)COC(=O)CN2C(=O)C3C4CCC(C4)C3C2=O)cc1[N+](=O)[O-]` (stereo unspecified), the Potency was “inactive”. In the case of `COc1cccc(C(=O)NCC(c2ccc3c(c2)OCO3)N2CCOCC2)c1` (stereo unspecified), the Potency is reported as inconclusive: 3.16 µM [inhibitor, single point]. With `Cn1nc(C(F)(F)F)c(/C=N/OC(=O)c2ccccc2)c1SCc1ccc(Cl)cc1` the Potency was “inactive”. In the case of `CN1CCN(CC(O)COC(c2ccccc2)c2ccccc2)CC1` (stereo unspecified), the Potency is reported as “inactive”. For `Cc1cc(C)nc(SCc2nnc(SCC(=O)Nc3ccc(C)c(C)c3)n2Cc2ccco2)n1`, the Potency was inconclusive: 13 µM [inhibitor, partial curve, poor fit]. In the case of `C(=N\Nc1nc2ccccc2[nH]1)/c1ccncc1`, the Potency is reported as inconclusive: 35.5 µM [activator, single point]. In the case of `O=C(CSc1nnnn1-c1ccccc1)Nc1ccc(Cl)cc1`, the Potency is reported as inconclusive: 0.0073 µM [inhibitor, full curve, poor fit]. With `Oc1c(Cl)cc(Oc2cc(Cl)c(O)c(CN3CCOCC3)c2)cc1CN1CCOCC1` the Potency was inconclusive: 7.08 µM [inhibitor, partial curve, poor fit]. For `O=C(Nc1ccc(Cl)c(C(F)(F)F)c1)C(Cc1ccccc1)NS(=O)(=O)c1ccc(Br)s1` (stereo unspecified), the Potency was “inactive”. With `Clc1cccc(N/N=C(\Cc2nc3ccccc3[nH]2)c2ccccc2)c1` the Potency was “inactive”. With `O=Cc1cnc(N2CCOCC2)nc1` the Potency was “inactive”. With `COc1ccc(C2C(C(=O)OCC3CCCO3)=C(C)NC3=C2C(=O)CC(c2ccco2)C3)cc1O` (stereo unspecified) the Potency was “inactive”. With `O=C(c1ccccc1Cl)N1CCCCC1CCN1CCCCC1` (stereo unspecified) the Potency was “inactive”. In the case of `CCOc1ccc(-n2nnnc2SCC(=O)N2CCOCC2)cc1`, the Potency is reported as “inactive”. With `COCCN1CN=C(Nc2nc3ccccc3s2)NC1` the Potency was “inactive”. In the case of `CC1=C(C)CS(=O)N(S(=O)(=O)c2ccccc2)C1` (stereo unspecified), the Potency is reported as “inactive”. With `CC(C)c1ccc(N2C(=NC(=O)C3CC3)SC3CS(=O)(=O)CC32)cc1` (stereo unspecified) the Potency was inconclusive: 4.47 µM [activator, partial curve, poor fit]. In the case of `CCOC(=O)c1ccc(NC(=O)c2cc3sccc3n2Cc2ccc(Cl)cc2)cc1`, the Potency is reported as “inactive”. With `CC(=O)Nc1ccc(N(CC(O)Cn2c3ccccc3c3ccccc32)S(=O)(=O)c2ccc(C)cc2)cc1` (stereo unspecified) the Potency was active: 11.2 µM. In the case of `COc1cc2c(cc1OC)CN(c1nc(CN3CCCCC3)nc3sc4c(c13)CCCC4)CC2`, the Potency is reported as inconclusive: 20.6 µM [inhibitor, single point]. In the case of `COc1cccc(NS(=O)(=O)c2ccc3c(c2)CCCN3C(C)=O)c1`, the Potency is reported as “inactive”. With `CSc1nc(Sc2ccccc2Cl)c2ccccc2n1` the Potency was inconclusive: 35.5 µM [inhibitor, single point]. In the case of `O=C(CCCOc1ccc(Cl)cc1)Nc1cccc(C(=O)O)c1`, the Potency is reported as “inactive”. For `CCCC(c1nnnn1CC1CCCO1)N1CCN(c2cc(Cl)ccc2C)CC1` (stereo unspecified), the Potency was inconclusive: 15.8 µM [inhibitor, single point]. In the case of `Cc1cccc(NP(=O)(Oc2ccccc2F)Oc2ccccc2F)c1`, the Potency is reported as inconclusive: 35.5 µM [inhibitor, single point]. For `C1=C(CCNc2ncnc3nc[nH]c23)CCCC1`, the Potency was “inactive”. For `Cc1ccc(-c2nc3ncccc3o2)cc1NC(=O)c1ccc(-c2ccc(Cl)cc2)o1`, the Potency was “inactive”. With `CCOc1cc(Br)cc(/C=N/NC(=O)c2cccnc2)c1O` the Potency was inconclusive: 10 µM [inhibitor, partial curve, poor fit]. With `c1ccc(C2=Nn3c(nnc3-c3ccccn3)SC2)cc1` the Potency was “inactive”. For `O=C(CSC1CC(=O)N(CC(c2ccccc2)c2ccccc2)C1=O)Nc1ccc(Cl)cc1` (stereo unspecified), the Potency was inconclusive: 6.51 µM [inhibitor, full curve]. With `CCOC(=O)CNC(=O)c1sc2ncnc(N3CCc4ccccc4C3)c2c1C` the Potency was inconclusive: 11.2 µM [inhibitor, partial curve, poor fit]. With `CCOc1ccccc1NC(=O)C(C)CC` (stereo unspecified) the Potency was inconclusive: 25.1 µM [activator, single point]. For `Cc1cccc(NC(=O)CSc2nc(-c3ccco3)cc(C(F)(F)F)n2)c1C`, the Potency was inconclusive: 3.16 µM [inhibitor, single point]. In the case of `Cc1cccc(N2CCN(S(=O)(=O)c3csc(C(N)=O)c3)CC2)c1C`, the Potency is reported as inconclusive: 1 µM [inhibitor, partial curve, poor fit]. With `Cc1ccc(-c2cn(-c3cccc(Cl)c3)c(S(=O)(=O)CC(=O)Nc3ccccc3F)n2)cc1` the Potency was “inactive”. With `CCC1CCCCN1S(=O)(=O)c1ccc(S(=O)(=O)N(Cc2cccs2)C2CC2)cc1` (stereo unspecified) the Potency was inconclusive: 16.4 µM [inhibitor, partial curve, poor fit]. With `CCN(CC)c1cc2c(cc1F)c(=O)c(S(=O)(=O)c1cccc(C)c1)cn2C` the Potency was “inactive”. For `Cc1ccc(N(C(=O)c2csnn2)C(C(=O)NC2CCCCC2)c2ccncc2)cc1` (stereo unspecified), the Potency was inconclusive: 6.31 µM [inhibitor, single point]. For `Cc1ccc(-n2nc3c(=O)n(CCCC(=O)NCCc4ccccc4Cl)nc(C)c3c2C)cc1`, the Potency was “inactive”. In the case of `O=C(C1CCN(S(=O)(=O)c2cccc3nsnc23)CC1)N1CCc2ccccc2C1`, the Potency is reported as inconclusive: 1.26 µM [inhibitor, single point]. For `CCOCCCN(C(=O)c1snc(C(N)=O)c1N)C(C(=O)NC1CCCC1)c1ccc(OC)cc1` (stereo unspecified), the Potency was “inactive”. In the case of `Cc1ccc2nc(NC(=O)c3ccccc3F)sc2c1`, the Potency is reported as inconclusive: 7.08 µM [inhibitor, partial curve, poor fit]. For `COc1ccc(NC(=O)CN2C(=O)C(c3ccccc3)=NC23CCCCCC3)cc1`, the Potency was inconclusive: 14.1 µM [inhibitor, partial curve, poor fit]. In the case of `CC(NC(=O)C1CCC(C(C)(C)C)CC1)C(c1ccccc1)N1CCOCC1` (stereo unspecified), the Potency is reported as “inactive”. In the case of `Cn1c(SCC(=O)c2ccccc2)nnc1-c1cccnc1`, the Potency is reported as “inactive”. With `FC(F)(F)c1cccc(Sc2nc(-c3ccccc3)nnc2C(F)(F)F)c1` the Potency was inconclusive: 20 µM [inhibitor, partial curve, poor fit]. In the case of `CCNC(=O)CN(c1ccc(Cl)cc1)S(=O)(=O)c1ccccc1`, the Potency is reported as inconclusive: 2.06 µM [inhibitor, full curve, poor fit]. For `CC(C)c1ccc(NS(=O)(=O)c2ccc3nc(-c4ccccc4)[nH]c3c2)cc1`, the Potency was inconclusive: 7.94 µM [inhibitor, partial curve, poor fit]. For `COc1ccc(NC(=O)CN2CCc3ccccc3C2)c(OC)c1`, the Potency was inconclusive: 35.5 µM [inhibitor, single point]. With `O=c1c2ccccc2nc(N/N=C/c2ccc(O)cc2)n1O` the Potency was “inactive”. With `O=C(CSc1ccc(Cl)cc1)N1CCC(c2nc3ccccc3s2)CC1` the Potency was inconclusive: 35.5 µM [inhibitor, partial curve, poor fit].
